Percent effect of library compounds

Protein sequences, listed by entry. Tags and fused reporters are not part of them.
UniProt P9WFT3, whole entry: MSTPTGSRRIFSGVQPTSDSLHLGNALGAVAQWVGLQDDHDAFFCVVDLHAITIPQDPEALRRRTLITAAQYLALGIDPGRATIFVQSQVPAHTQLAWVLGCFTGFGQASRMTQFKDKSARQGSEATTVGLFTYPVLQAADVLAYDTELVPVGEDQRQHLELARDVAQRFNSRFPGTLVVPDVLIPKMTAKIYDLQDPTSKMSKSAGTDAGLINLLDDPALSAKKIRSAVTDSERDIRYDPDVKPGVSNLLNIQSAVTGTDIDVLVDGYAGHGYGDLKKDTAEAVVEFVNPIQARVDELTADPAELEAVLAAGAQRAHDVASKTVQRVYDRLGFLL

Measurements from “University of Dundee, Small-Polar-MMV Screening Library” (2021), ChEMBL document CHEMBL3988442.

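Enzyme assay of tryptophanyl-tRNA synthetase; the read-out is not stated. Target: Tryptophan-tRNA ligase, Mycobacterium tuberculosis (UniProt P9WFT3). Compounds at 10 µM. Direction is not recorded; retested compounds ran higher, which suggests that high means inhibition. Of about 65,000 compounds tested this way, about 64 (0.098%) reached 50% or more in at least one test.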

The filed quantity is “Percent Effect” (%).
The controls that fix the scale are not given in the record; negative values are as filed.
This is an unselected part of the compounds tested.

COCCN1CCC2(CC1)CC(NC(=O)C1CC1)c1ccccc1O2 (stereo not drawn) read -4.07%. NC(=O)C1CCN(C(=O)c2cc(-n3cnnn3)ccc2Cl)CC1 gave 4.068%. Result for CNC(=O)c1ccc(S(=O)(=O)NCCc2ccccn2)cc1 was -1.168%. For COCCC(=O)N1CCc2cc(Cl)cc(Cl)c2C1 the result was -2.734%. For Cc1cc(C(=O)N2CCOC(c3nc(C)n[nH]3)C2)[nH]n1 (stereo not drawn) the result was -4.025%.

For Cc1ccc(C2(CN(C)Cc3c(C)nn(C)c3C)CCNCC2)nc1 the result was 0.4188%. CCn1c(CN2CCOC(Cn3cncn3)C2)nc2cc(F)ccc21 (stereo not drawn) read -0.9723%. With O=C(Nc1nc2c(s1)CN(C(=O)NCc1cccs1)CC2)C1CC1 the screen gave 6.917%. Result for COc1ccc2c(c1)nc1n2[C@@H](CNCc2ccccc2)COC1 was 10.32%. With N#Cc1ccc(F)c(CN2CCCC2Cn2cnc3ccccc32)c1 (stereo not drawn) the screen gave -1.458%.

Result for CS(=O)(=O)Cc1cc(F)ccc1NCc1nnsc1Cl was 5.888%. Result for CN(C)CCCNC(=O)C1CC(=O)N(c2n[nH]c3cccc(F)c23)C1 (stereo not drawn) was 1.471%. For COC(=O)N1CCCC(NC(=O)NCc2ccc(C)nc2)C1 (stereo not drawn) the result was 2.033%. Cc1ccc2nc(C(=O)N3CC(n4nc(C)cc4C)C3)cn2c1 gave -2.385%. Result for Cc1nccn1C1CCCN(C(=O)c2ccc(-n3cccn3)nc2)C1 (stereo not drawn) was -5.356%.

With CN1C(=O)CC2(CCNCC2)c2ccccc21 the screen gave -0.9709%. Result for Cc1cccc2c1cnn2CCCNC(=O)C1CC1 was -2.073%. Result for CN(Cc1cccc(C(N)=O)c1)c1ncc(C(N)=O)cc1Cl was -1.709%. CCc1noc(CN2CCN(C(=O)c3ccccc3F)CC2)n1 read 13.89%. For O=C(NCC1CCN(CCc2ccccc2)C1)NCC1(O)CCC1 (stereo not drawn) the result was -0.7991%.

Result for CC1(c2ccccc2)CCC(=O)N(CCN2CCOC2=O)C1 (stereo not drawn) was 4.222%. O=C1CO[C@@H]2CN(C3CCOCC3)C[C@H]2N1Cc1cccc(F)c1 read -7.16%. For Fc1ccccc1CC1CCN(Cc2cscn2)CC1 the result was -1.933%. Cc1oncc1S(=O)(=O)N1CCCC(C)(Cc2ccc3c(c2)OCO3)C1 (stereo not drawn) gave 3.926%. Cc1cc(C(=O)NCc2ccnc(N(C)C)c2)c(C)o1 read 1.039%.

Result for CCc1noc(C)c1C(=O)N1CCCN(Cc2cscn2)CC1 was -3.887%. Result for CCCc1ccc(N2CCN(Cc3nc4ccccc4n3C)CC2)cc1 was 0.7341%. With COCCCN1CCC(NC(=O)C2CC2)CC1 the screen gave 1.751%. With COC(C(=O)NC1CC1)c1ccccc1 (stereo not drawn) the screen gave -2.943%. For NC(=O)[C@@H]1Cc2ccccc2CN1S(=O)(=O)N1CCCCCC1 the result was 4.032%.

With CC(Cn1cccn1)NCc1nc(-c2ccccc2Cl)no1 (stereo not drawn) the screen gave 3.005%. Result for CC(=O)N[C@@H]1CN(Cc2ccccc2C#N)C[C@H]1c1ccc(C)cc1 was 7.721%. Result for Cn1cc(S(=O)(=O)Nc2c(F)cccc2N2CCCC2)cn1 was -1.065%. Result for CCNC(=O)[C@@H]1C[C@@H](NC(=O)CSC)CN1Cc1ccncc1 was 0.3708%. For O=C(CCn1ccccc1=O)Nc1ccc(C(=O)O)cc1 the result was 4.641%.

CC(C)C(=O)N1CCCC(c2ncncc2-c2ccncc2)C1 (stereo not drawn) gave -2.291%. For CC(=O)c1cc(CC(=O)N2CCN(CCOc3ccccc3)CC2)cs1 the result was 6.046%. Result for CC(=O)NC[C@@H]1C=C(C)[C@H](CC(=O)NCc2cccnc2)C[C@H]1C(C)C was 5.045%. Result for COc1cc(C(=O)N2Cc3cnc(C(C)(C)C)nc3C2)ccn1 was -0.6734%.

For reference, 4 entries once more:

With CCn1c(CN2CCOC(Cn3cncn3)C2)nc2cc(F)ccc21 (stereo not drawn) the screen gave -0.9723%.
With Cc1cccc2c1cnn2CCCNC(=O)C1CC1 the screen gave -2.073%.
With CC1(c2ccccc2)CCC(=O)N(CCN2CCOC2=O)C1 (stereo not drawn) the screen gave 4.222%.
With COCCN1CCC2(CC1)CC(NC(=O)C1CC1)c1ccccc1O2 (stereo not drawn) the screen gave -4.07%.